HELM strings list residues between dots; [ac] is acetyl, [am] amide, other brackets name non-standard units. [ ]: non-standard residue; d: D form. The star is where a group is joined. Hyp = O=C(O)[C@@H]1C[C@@H](O)CN1; Cbz = O=C(OCc1ccccc1)*; Boc = CC(C)(C)OC(=O)*; OtBu = CC(C)(C)O*

This data set is described as follows: general procedure: solution-phase peptide synthesis; isobutyl chlorocarbonate / N-methylmorpholin (mixed anhydride).

Cbz-E(OtBu)[Hyp]GPK(Boc)-OtBu: the step yield (coupling step) is 54%. As for “PEPTIDE1{G.K.[Hyp].G.E.[Hyp].G.P.K}$$$$V2.0”, the step yield (late stage modification step, trifluoroacetic salt) came out at 91%. Regarding Cbz-GK(Cbz)[Hyp]G-OtBu, the step yield (coupling step) was 103%. “Glu--(OBu^t)--Hyp--Gly--Pro--Lys--(BOC)--OBu^t, acetate” gave a step yield (late stage modification step) of 100%. Cbz-GK(Cbz)[Hyp]G-OH gave a step yield (late stage modification step) of 87.3%.

The values above are taken from patent US4474761A (Choay S.A., priority 1980, dated 1984).
